Measurements as given in PMC10080078, “Use of phage display biopanning as a tool to design CAR-T cells against glioma stem cells” (Frontiers in Oncology, 2023).
No constants are given. Whether binding was seen depends on the method and setting. Some entries that bind do so weakly or less than the wild type.

T1: Recombinant Human N-Cadherin extracellular domain, amino acids 160-724 (human) (UniProt P19022)
T1 sequence: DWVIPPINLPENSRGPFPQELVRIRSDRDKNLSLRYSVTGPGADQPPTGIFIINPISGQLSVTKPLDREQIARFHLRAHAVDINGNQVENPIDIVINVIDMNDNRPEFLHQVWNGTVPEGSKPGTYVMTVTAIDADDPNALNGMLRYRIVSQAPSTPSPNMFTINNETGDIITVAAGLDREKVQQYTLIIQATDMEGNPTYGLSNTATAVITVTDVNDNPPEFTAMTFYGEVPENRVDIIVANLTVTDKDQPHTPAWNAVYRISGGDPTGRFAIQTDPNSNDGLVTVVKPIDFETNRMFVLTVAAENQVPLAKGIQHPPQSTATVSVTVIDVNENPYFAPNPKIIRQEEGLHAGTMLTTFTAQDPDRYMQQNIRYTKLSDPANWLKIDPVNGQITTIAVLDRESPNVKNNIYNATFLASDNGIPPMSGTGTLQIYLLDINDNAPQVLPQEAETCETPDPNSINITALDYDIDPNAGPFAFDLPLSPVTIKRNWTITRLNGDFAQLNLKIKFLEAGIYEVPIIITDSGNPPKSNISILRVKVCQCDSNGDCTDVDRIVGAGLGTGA


Experiments:
[1] = target: T1, Recombinant Human N-Cadherin extracellular domain, amino acids 160-724 (human); test: SPR; N-cadherin amine-coupled to CM5 chip (about 3500 RU), Biacore T200, 25°C; 20 mM HEPES pH 7.4, 1 mM TCEP, 2 mM CaCl2, 150 mM NaCl, 5% DMSO; single cycle kinetics, peptide 2 to 167 µM; 1:1 binding model; both purified
[2] = target: N-cadherin (CDH2) on glioma stem cells (human (endogenous in patient-derived GSCs)) (UniProt P19022); test: flow cytometry on cells; EV peptide on GSCs after a knockdown of CDH2; only the binder purified

Row | binding [1] | binding [2] | Binder
1 | no binding (tested: 2 to 167 µM) |  | GGGSGGG [non-targeting (NT) peptide (GGGSGGG) of the SPR control]
2 |  | binds | AWEFYFPGGGGSGGGGSGGGGSSSQPFWS (conjugated with biotin (position not given)) [biotinylated dual peptide EV (EV-b)]
